Article PMC8395313, “Membrane Association Modes of Natural Anticancer Peptides: Mechanistic Details on Helicity, Orientation, and Surface Coverage” (International Journal of Molecular Sciences, 2021)
No constants are given. Whether binding was seen depends on the method and setting.

Target: Temporin-La (Rana temporaria)
Assay: condition: only bound to PC/PG or PC/PS vesicles (2 µM peptide, 100 µM lipid); intrinsic tyrosine fluorescence; 2 µM peptide with 100 µM lipid (PC/PG or PC/PS vesicles), PBS, 25 °C, excitation at 275 nm; emission compared with that of the free peptide; both purified

B1: Temporin-La (peptide)
peptide: LLRHVVKILEKYL
modifications: C-terminal amide
How did the binding turn out when B1 was run?
The binding was “no binding”.
